In publication doi:10.1101/2022.04.28.489920:
Results are given in words; binding and its absence hold for the method and conditions named. For part of these data: Binding seen in cells or lysates may run through a third protein. Some binding calls cover weakened binding; strength is not graded here. For part of these data: Sequences can lack the tags named with a protein. One block for each binder: values may come before it.

Chains of the proteins cited; added tags and fusions are not shown.
UniProt Q9DAK2, whole entry: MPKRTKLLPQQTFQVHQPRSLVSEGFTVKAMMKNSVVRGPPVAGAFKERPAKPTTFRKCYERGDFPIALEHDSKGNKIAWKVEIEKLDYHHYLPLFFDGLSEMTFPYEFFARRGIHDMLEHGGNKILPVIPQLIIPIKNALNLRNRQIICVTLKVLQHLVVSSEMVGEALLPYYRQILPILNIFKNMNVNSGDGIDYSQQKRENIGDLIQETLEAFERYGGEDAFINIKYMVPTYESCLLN

Tests used:
[1] = target: Full-length mouse PACRG in pGBKT7 (yeast two-hybrid bait) (mouse) (UniProt Q9DAK2); assay: two-hybrid
[2] = target: PACRG/Myc (mouse Pacrg cDNA in pCS2+MT) (mouse) (UniProt Q9DAK2); assay: co-IP
[3] = target: His-tagged PACRG (full-length mouse Pacrg in pCDFDuet-1, upstream cloning site) (mouse) (UniProt Q9DAK2); assay: SEC

binding [1]: binds
B1: DNALI1 coding sequence in pGAD-T7 (direct yeast two-hybrid) (protein, UniProt Q8BVN8 1-258)
chain: MIPPADSLLKYDTPVLVSRNTEKRSPTARPLKVTIQQPGPSSTSPQPPKAKLPSTSCVPDPTKQAEEILNAILPPREWVEDTQLWIQQVSSTPSTRMDVVHLQEQLDLKLQQRQARETGICPVRRELYSQCFDELIREVTINCAERGLLLLRVRDEIHMTIAAYQTLYESSVAFGMRKALQAEQGKSDMERKITELETEKRDLERQVNEQKAKCEATEKRESERRQVEEKKHNEEIQFLKRTNQQLKAQLEGIIAPKK

binding [2]: binds
B2: DNALI1/Flag (mouse Dnali1 cDNA in pCS3+FLT) (protein, UniProt Q8BVN8 1-258)
chain: MIPPADSLLKYDTPVLVSRNTEKRSPTARPLKVTIQQPGPSSTSPQPPKAKLPSTSCVPDPTKQAEEILNAILPPREWVEDTQLWIQQVSSTPSTRMDVVHLQEQLDLKLQQRQARETGICPVRRELYSQCFDELIREVTINCAERGLLLLRVRDEIHMTIAAYQTLYESSVAFGMRKALQAEQGKSDMERKITELETEKRDLERQVNEQKAKCEATEKRESERRQVEEKKHNEEIQFLKRTNQQLKAQLEGIIAPKK

binding [3]: binds
B3: Untagged DNALI1 (full-length mouse Dnali1 in pCDFDuet-1, downstream cloning site) (protein, UniProt Q8BVN8 1-258)
chain: MIPPADSLLKYDTPVLVSRNTEKRSPTARPLKVTIQQPGPSSTSPQPPKAKLPSTSCVPDPTKQAEEILNAILPPREWVEDTQLWIQQVSSTPSTRMDVVHLQEQLDLKLQQRQARETGICPVRRELYSQCFDELIREVTINCAERGLLLLRVRDEIHMTIAAYQTLYESSVAFGMRKALQAEQGKSDMERKITELETEKRDLERQVNEQKAKCEATEKRESERRQVEEKKHNEEIQFLKRTNQQLKAQLEGIIAPKK
